Laboratory results: a protein production outcome set (Wang et al. 2014)

test: label from the status in PepcDB records

Sequence | protein production
ERLTLDTRLRQALERNELVLHYQPIVELASGRIVGGEALVRWEDPERGLVMPSAFIPAAEDTGLIVALSDWVLEACCTQLRAWQQQGRAADDLTLSVNISTRQFEGEHLTRAVDRALARSGLRPDCLELEITENVMLVMTDEVRTCLDALRARGVRLALDDFGTGYSSLSYLSQLPFHGLKIDQSFVRKIPAHPSETQIVTTILALARGLGMEVVAEGIETAQQYAFLRDRGCEFGQGNLMSTP | not failed
MADKLTDDQITEYRESFRLFDKNGDGSITKKELGTMMRSIGEKPTKADLQDLMNEADLDGDGTIDFPEFLCVMAKNQGHDQAPRHTKKTMADKLTDDQITEYRESFRLFDKNGDGSITKKELRTVMFSLGKNRTKADLQDMMNEVDLDGDGTIDFPEFLYLMAKNQGHDQAPRHTKKTMVDYQLTDDQILEFREAFRVFDKNGDGYITVNELRTTMRSLGETQTKAELQDMINEADADGDGTISFSEFVCVMTGKMIDTQSKKETYRVVNQGQGQVQRHTRNDRAGGTNWERDIAVGVASNIIASPISDFMKDRFKDLFEALLS | failed
MANGIKRQHEPPRIVGDLLQSEIAEKQARSIRCQMTIAKLPLVKDIEQFDFTGTPVNEALVRELATRSLVADQRNVVLIGGTGTGKSHLAIAIARALIRNGTRGRFFNVVDLVNKLEAETRSGKQGRTADYLGRLDFVILDELGYLPFAQAGGQLLFHLISRLYERTSIIVTTNLAFGEWPTVFGDAKMTTALLDRLTHHCEIIETGNESWRFKNRALEHHHHHH | not failed
MATRVLSMSARLGPVPQPPAPQDEPVFAQLKPVLGAANPARDAALFPGEELKHAHHRPQAQPAPAQAPQPAQPPATGPRLPPEDLVQTRCEMEKYLTPQLPPVPIIPEHKKYRRDSASVVDQFFTDTEGLPYSINMNVFLPDITHLRTGLYKSQRPCVTHIKTEPVAIFSHQSETTAPPPAPTQALPEFTSIFSSHQTAAPEVNNIFIKQELPTPDLHLSVPTQQGHLYQLLNTPDLDMPSSTNQTAAMDTLNVSMSAAMAGLNTHTSAVPQTAVKQFQGMPPCTYTMPSQFLPQQATYFPPSPPSSEPGSPDRQAEMLQNLTPPPSYAATIASKLAIHNPNLPTTLPVNSQNIQPVRYNRRSNPDLEKRRIHYCDYPGCTKVYTKSSHLKAHLRTHTGEKPYKCTWEGCDWRFARSDELTRHYRKHTGAKPFQCGVCNRSFSRSDHLALHMKRHQN | not failed
MDKYDDLGLEASKFIEDLNMYEASKDGLFRVDKGASNNPEFEETRRVFATKMAKIHLQQQQQQQLLQEEALPRAGRSPINGGNRQGVSSKLAADGAAKPPLAVPTVAPGLATTTMAVQSSYPPQEQRTRPSAHGARPGSQNCGSREGPVSSQRPALHGLGPCEDPSCLTHGDYYDNFSLASPQWGDKPEESPSMSLSVGSGWPGCPGNDSLSHRSCGDSHPYHPQLSMCSGRSFESGQDSGIGGHSSEKPTGLWSTASSQRVNLGFSSTGLENGTPAQPKGTTVSAPMVPSSTSQGACLRRDSSLGYEAPGRVFKPLVDTQPWLQDGPKSYLSVSAPLSSTTSKDNAQTGMTAGLDPKLGCVESGTSPKPSPTSNVHPVMSAPSELSCKESPPSWSTDSSLGPVLPESPTPSRVRLPCQTLTPGPELGPSTAELKLEALTQRLEREMDAHPKADYFGACVKCSKGVFGAGQACQAMGDLYHDACFTCAACSRKLRGKAFYFVNGKVFCEEDFLYSGFQQSADRCFLCGHLIMDMILQALGKSYHPGCFRCVICNECLDGVPFTVDSENKIYCVRDYHKVLAPKCAACGLPILPPEGSDETIRVVSMDRDYHVECYHCEDCGLELNDEDGHRCYPLEDHLFCHSCHVKRLEKGPSPASLHQHHF | failed
MEKYNPHAIEAKWQRFWEEKGFMKAKDLPGGRGKQYVLVMFPYPSGDLHMGHLKNYTMGDVLARFRRMQGYEVLHPMGWDAFGLPAENAALKFGVHPKDWTYANIRQAKESLRLMGILYDWDREVTTCEPEYYRWNQWIFLKMWEKGLAYRAKGLVNWCPKCQTVLANEQVVEGRCWRHEDTPVEKRELEQWYLRITAYAERLLKDLEGLNWPEKVKAMQRAWIGRSEGAEILFPVEGKEVRIPVFTTRPDTLFGATFLVLAPEHPLTLELAAPEKREEVLAYVEAAKRKTEIERQAEGREKTGVFLGAYALNPATGERIPIWTADYVLFGYGTGAIMAVPAHDQRDYEFARKFGLPIKKVIERPGEPLPEPLERAYEEPGIMVNSGPFDGTESEEGKRKVIAWLEEKGLGKGRVTYRLRDWLISRQRYWGTPIPMVHCEACGVVPVPEEELPVLLPDLKDVEDIRPKGKSPLEAHPEFYETTCPKCGGPAKRDTDTMDTFFDSSWYYLRYTDPHNDRLPFDPEKANAWMPVDQYIGGVEHAVLHLLYSRFFTKFLHDLGMVKVEEPFQGLFTQGMVLAWTDFGPVEVEGSVVRLPEPTRIRLEIPESALSLEDVRKMGAELRPHEDGTLHLWKPAVMSKSKGNGVMVGPFVKEQGADIARITILFAAPPENEMVWTEEGVQGAWRFLNRIYRRVAEDREALLETSGVFQAEALEGKDRELYGKLHETLKKVTEDLEALRFNTAIAALMEFLNALYEYRKDRPVTPVYRTAIRYYLQMLFPFAPHLAEELWHWFWPDSLFEAGWPELDEKALEKDVVEVAVQVNGRVRGTIHIPKDAPLEVARAEALKVRNVRAHLEGKEVVKEIYVPGKILNLVVRG | not failed
MHTPITTALPDYQSQHKKRLSWMPWLYFSLKEKHLTWAKPWQNEVQTNLCALETVTIGDNCFIAPEAQLFAEPNRDINIGNHCMIAADCFLHGPITLGNEVAINHGCSLDGGRVGIQIGDQTRIANHVTIYAFNHGMAPDTPIYQQASHSKGIVIGKDVWIGAQAGIVDGVTIGDHAVIGMGCIVTKDVPAWAIVAGNPARVIGDRRDK | failed
MKKSKFSDSQIIEALKRVEAGLSVPKLCRELGISTAAFYKWRAKHGGLAVSMMARMKELEAENARLNEDARGGAPEGRHSSGGDFKKVVRPSHLRATARRAVSGHRVSIRLGCAAFQVSGTCYRHSAKRNAGNEEIADWLMRLTDNHRNWGFGLCFLYLRNVKGFGWNHKRVCRICRELELNLRIKPRKRLKRDKPEPLTAPTRINQVWSMDFMHDQRADGRKFRLFNVIDDFNRASLGMEVDFSPPSERVTRALEQVMEWRGRPRVIRCDNGPENISAKVQARAARQGIRIECIQPGNPQQNAHVERFNRTVRHEWLSQYDWESLDEVQAFATRWMWTYNHERPNMALGGITPKQRLARAA | failed
MLDICLEKRVGTTLAAPKCNSSTVRFQGLAEGTKGTMKMDMEDADMTLWTEAEFEEKCTYIVNDHPWDSGADGGTSVQAEASLPRNLLFKYATNSEEVIGVMSKEYIPKGTRFGPLIGEIYTNDTVPKNANRKYFWRIYSRGELHHFIDGFNEEKSNWMRYVNPAHSPREQNLAACQNGMNIYFYTIKPIPANQELLVWYCRDFAERLHYPYPGELTMMNLTQTQSSLKQPSTEKNELCPKNVPKREYSVKEILKLDSNPSKGKDLYRSNISPLTSEKDLDDFRRRGSPEMPFYPRVVYPIRAPLPEDFLKASLAYGIERPTYITRSPIPSSTTPSPSARSSPDQSLKSSSPHSSPGNTVSPVGPGSQEHRDSYAYLNASYGTEGLGSYPGYAPLPHLPPAFIPSYNAHYPKFLLPPYGMNCNGLSAVSSMNGINNFGLFPRLCPVYSNLLGGGSLPHPMLNPTSLPSSLPSDGARRLLQPEHPREVLVPAPHSAFSFTGAAASMKDKACSPTSGSPTAGTAATAEHVVQPKATSAAMAAPSSDEAMNLIKNKRNMTGYKTLPYPLKKQNGKIKYECNVCAKTFGQLSNLKVHLRVHSGERPFKCQTCNKGFTQLAHLQKHYLVHTGEKPHECQVCHKRFSSTSNLKTHLRLHSGEKPYQCKVCPAKFTQFVHLKLHKRLHTRERPHKCSQCHKNYIHLCSLKVHLKGNCAAAPAPGLPLEDLTRINEEIEKFDISDNADRLEDVEDDISVISVVEKEILAVVRKEKEETGLKVSLQRNMGNGLLSSGCSLYESSDLPLMKLPPSNPLPLVPVKVKQETVEPMDP | failed
MLDIRGVRKSFRKPDGSELLVLDGIDFTLGEGEIIGLLGRSGSGKSTLLRSIAGLTPPSAGSVIYHGNEVTAPPPGIAMVFQGFALFPWLTVLENVQLGLEALGLSTGELHRRAIEAIDLIGLDGFESAYPRELSGGMRQRVGFARALVVHPNILLMDEPFSALDVLTAETLRTDFLDLWSEGQLPIKGVILVTHNIEEAVLMCDRILIFGSNPGRILNEIKVELPHPRARLDPAFRDLVERIYVEMTTRSASVPAGRRTEYFPGTGIGTILPHVSSNSLSGLLEAVAAAPYNGEADLPVIASSLHMEIDELFPVAETLQMLRFAEVAGGDIRLTTEGRQFADFDTDRRKHLFARHLLTYVALAAHIRRVLDERPVHQAPWSRFADELEDYMPPAAAVQTLRTIIALGRYAEIFSYDDEKQVFSLDNPLEHHHHHH | failed
MLKATGTVAPAMHVVFPCFSSRPLILPLRSTKTFKPLSCFKQQGGKGMNGVHEIELKVRDYELDQFGVVNNAVYANYCQHGQHEFMETIGINCDEVSRSGEALAVSELTIKFLAPLRSGCKFVVKTRISGTSMTRIYFEQFIFKLPNQEPILEAKGMAVWLDKRYRPVCIPSYIRSNFGHFQRQHVVEY | failed
MMVLKVEELVTGKKNGNGEAGEFLPEDFRDGEYEAAVTLEKQEDLKTLLAHPVTLGEQQWKSEKQREAELPKKKLEQRSKLENLEDLEIIIQLKKRKKYRKTKVPVVKEPEPEIITEPVDVPTFLKAALENKLPVVEKFLSDKNNPDVCDEYKRTALHRACLEGHLAIVEKLMEAGAQIEFRDMLESTAIHWASRGGNLDVLKLLLNKGAKISARDKLLSTALHVAVRTGHYECAEHLIACEADLNAKDREGDTPLHDAVRLNRYKMIRLLIMYGADLNIKNCAGKTPMDLVLHWQNGTKAIFDSLRENSYKTSRIATF | failed
MPRPGLKTRSKRRVYVRTPGGKVVIHYEPRKPGPARCAICGKPLNGVPRLIPSKLRKLAKTEKRPERPYGGYICPRCLSRLLRESIRASISS | failed
MRKKIIATVIGTSALAAVTWTNADAATTYKVKSGDSLWSIANKYNMSVAKLKSLNNLTSNVIFPNQSLKVSGSTSSSTSSNTSTGSTYTVKSGDTLSGIAAKYGTTYQKIMSLNGLSNFNIYPGQKLKVSGAASSSSSNTSGNTSSGSTTTYTVKSGDSLSAIAAKYGTTYQKIMSLNGLTNFNIYPGQKLKVSGKASTGGSGSSSTGSAGYKTPVFNHSNLYDWGQCTWHVFNKRAQIGKGISTYWWNANNWDTAAAADGYTIDRKATVGSILQSDMGYYGHVAFVESVNANGSITISEMNYSASPGIVTYRTIPASQVSSYVYIHLEHHHHHH | not failed
MRWLTGIEIHPGATIGRRFFIDHGMGIVIGETAEIGDDVTLYQGVTLGGTSWNKGKRHPTLENGVVVGAGAKVLGPFTVGAGAKIGSNAVVTKAVPAGATAVGIPGRIIVKSEDTEVEAKRKAMAEKIGFDAYGVSGDMPDPVARLEHHHHHH | failed
